These are literature values, as cited in patent publication US10953113B2, “Imaging agents and methods of use” (The Board of Regents of the University of Oklahoma, priority 2016, dated 2021).

The subject of this data set is infarcted myocardium. The settings on record: infarct-avid scintigraphy; cited from earlier work.

Regarding `O=P([O-])([O-])OP(=O)([O-])[O-].[99Tc]` [PyP, ^99mTc-pyrophosphate], the “Sensitivity for subendocardial infarct detection” value is 40% and the Specificity is reported as 64%.
